Measured data: PubChem BioAssay AID504764 (Drosophila RNAi Screening Center, 2011)
Purpose: 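Genome-wide screen for regulators of Notch-driven gene expression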 (primary screen). Cell system: Drosophila Kc167 cells. Reagents: long dsRNA against Drosophila genes. Time to read-out: about 5 days (4 days dsRNA, then 24 h after transfection). Challenge: transfection of constitutively active membrane-tethered Notch lacking the extracellular domain, read 24 h later. Measured: 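Firefly luciferase from an E(spl)m3 reporter with active Notch, plus control-promoter and uninduced reporter wells for normalisation; unnormalised counts, duplicate wells a and b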. Scale: induced reporter light, run 1, well a and induced reporter light, run 1, well b: higher = more light from the Notch target reporter with active Notch; control promoter light, run 1, well a and control promoter light, run 1, well b: higher = more light from the viral control promoter (cell number, transfection, viability); uninduced reporter light, run 1, well a: higher = more light from the Notch target reporter without active Notch. Hit rule: 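Hit if the duplicate-averaged log2 ratio of induced to control-promoter light gives a plate-wise z beyond ±2, or induced to uninduced beyond ±1.8; weak-control or discordant-duplicate wells dropped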. Meaning of the calls: active = modifier hit (raised or lowered Notch signal); inactive = not a hit.
The screen tested about 22,000 reagents; below is an unselected part of those that have a named target and a result. Of all reagents, 403 (1.9%) were called active. 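Unnormalised raw counts per well; ratio z-scores behind the hit calls and whether each hit raises or lowers signal are not deposited.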 No sequences are given here. Not stated in the record: the amount of reagent.

COX6CL (GeneID 318868) [DRSC00895] → induced reporter light, run 1, well a: 1.38e5; induced reporter light, run 1, well b: 1.52e5; control promoter light, run 1, well a: 1.89e5; control promoter light, run 1, well b: 2.36e5; uninduced reporter light, run 1, well a: 11335; call: inactive
nSyb (GeneID 38196) [DRSC08727] → induced reporter light, run 1, well a: 1.07e5; induced reporter light, run 1, well b: 78330; control promoter light, run 1, well a: 1.74e5; control promoter light, run 1, well b: 1.53e5; uninduced reporter light, run 1, well a: 7845; call: inactive
Tsp26A (GeneID 33838) [DRSC03135] → induced reporter light, run 1, well a: 1.74e5; induced reporter light, run 1, well b: 1.19e5; control promoter light, run 1, well a: 1.78e5; control promoter light, run 1, well b: 1.51e5; uninduced reporter light, run 1, well a: 8935; call: inactive
CG13946 (GeneID 50198) [DRSC00364] → induced reporter light, run 1, well a: 1.10e5; induced reporter light, run 1, well b: 1.01e5; control promoter light, run 1, well a: 1.06e5; control promoter light, run 1, well b: 79680; uninduced reporter light, run 1, well a: 8755; call: inactive
Ate1 (GeneID 37288) [DRSC05925] → induced reporter light, run 1, well a: 1.22e5; induced reporter light, run 1, well b: 97655; control promoter light, run 1, well a: 2.44e5; control promoter light, run 1, well b: 2.63e5; uninduced reporter light, run 1, well a: 8790; call: inactive
CG11396 (GeneID 40296) [DRSC11654] → induced reporter light, run 1, well a: 1.02e5; induced reporter light, run 1, well b: 96175; control promoter light, run 1, well a: 89040; control promoter light, run 1, well b: 1.01e5; uninduced reporter light, run 1, well a: 8635; call: inactive
CG18367 (GeneID 37255) [DRSC06545] → induced reporter light, run 1, well a: 1.23e5; induced reporter light, run 1, well b: 97195; control promoter light, run 1, well a: 85895; control promoter light, run 1, well b: 1.03e5; uninduced reporter light, run 1, well a: 6940; call: inactive
Pvf3 (GeneID 33995) [DRSC02284] → induced reporter light, run 1, well a: 70190; induced reporter light, run 1, well b: 63700; control promoter light, run 1, well a: 73940; control promoter light, run 1, well b: 76735; uninduced reporter light, run 1, well a: 4640; call: inactive
Pvf3 (GeneID 33995) [DRSC02285] → induced reporter light, run 1, well a: 66190; induced reporter light, run 1, well b: 55225; control promoter light, run 1, well a: 62335; control promoter light, run 1, well b: 62260; uninduced reporter light, run 1, well a: 4370; call: inactive
Pvf3 (GeneID 33995) [DRSC02286] → induced reporter light, run 1, well a: 66940; induced reporter light, run 1, well b: 58045; control promoter light, run 1, well a: 28325; control promoter light, run 1, well b: 33615; uninduced reporter light, run 1, well a: 4150; call: active
Pvf3 (GeneID 33995) [DRSC02751] → induced reporter light, run 1, well a: 55415; induced reporter light, run 1, well b: 55185; control promoter light, run 1, well a: 55515; control promoter light, run 1, well b: 49260; uninduced reporter light, run 1, well a: 4450; call: inactive
Dcr-2 (GeneID 36993) [DRSC06992] → induced reporter light, run 1, well a: 1.14e5; induced reporter light, run 1, well b: 1.11e5; control promoter light, run 1, well a: 1.48e5; control promoter light, run 1, well b: 1.22e5; uninduced reporter light, run 1, well a: 9405; call: inactive
Wbp2 (GeneID 39460) [DRSC09821] → induced reporter light, run 1, well a: 73935; induced reporter light, run 1, well b: 70390; control promoter light, run 1, well a: 40020; control promoter light, run 1, well b: 21015; uninduced reporter light, run 1, well a: 10665; call: inactive
CG42361 (GeneID 37936) [DRSC04391] → induced reporter light, run 1, well a: 1.84e5; induced reporter light, run 1, well b: 1.61e5; control promoter light, run 1, well a: 1.61e5; control promoter light, run 1, well b: 1.63e5; uninduced reporter light, run 1, well a: 11440; call: inactive
CG13114 (GeneID 34272) [DRSC02212] → induced reporter light, run 1, well a: 1.14e5; induced reporter light, run 1, well b: 1.42e5; control promoter light, run 1, well a: 74830; control promoter light, run 1, well b: 92235; uninduced reporter light, run 1, well a: 15305; call: inactive
CG30355 (GeneID 246561) [DRSC21958] → call: inactive
CG13066 (GeneID 50270) [DRSC09949] → induced reporter light, run 1, well a: 1.56e5; induced reporter light, run 1, well b: 1.36e5; control promoter light, run 1, well a: 2.45e5; control promoter light, run 1, well b: 2.25e5; uninduced reporter light, run 1, well a: 6985; call: inactive
CG7987 (GeneID 41768) [DRSC16357] → induced reporter light, run 1, well a: 97760; induced reporter light, run 1, well b: 1.10e5; control promoter light, run 1, well a: 74450; control promoter light, run 1, well b: 73965; uninduced reporter light, run 1, well a: 9300; call: inactive
p38a (GeneID 42866) [DRSC16743] → induced reporter light, run 1, well a: 1.97e5; induced reporter light, run 1, well b: 1.59e5; control promoter light, run 1, well a: 2.20e5; control promoter light, run 1, well b: 2.32e5; uninduced reporter light, run 1, well a: 13182; call: inactive
Golgin84 (GeneID 42905) [DRSC15269] → induced reporter light, run 1, well a: 1.40e5; induced reporter light, run 1, well b: 1.64e5; control promoter light, run 1, well a: 1.85e5; control promoter light, run 1, well b: 2.04e5; uninduced reporter light, run 1, well a: 13480; call: inactive
Axn (GeneID 43565) [DRSC14120] → induced reporter light, run 1, well a: 36815; induced reporter light, run 1, well b: 36800; control promoter light, run 1, well a: 40455; control promoter light, run 1, well b: 46510; uninduced reporter light, run 1, well a: 3605; call: inactive
l(1)G0196 (GeneID 33137) [DRSC20591] → induced reporter light, run 1, well a: 2.10e5; induced reporter light, run 1, well b: 2.10e5; control promoter light, run 1, well a: 2.81e5; control promoter light, run 1, well b: 2.85e5; uninduced reporter light, run 1, well a: 15980; call: inactive
l(1)G0196 (GeneID 33137) [DRSC20628] → induced reporter light, run 1, well a: 91510; induced reporter light, run 1, well b: 1.04e5; control promoter light, run 1, well a: 68865; control promoter light, run 1, well b: 49200; uninduced reporter light, run 1, well a: 8055; call: inactive
l(1)G0196 (GeneID 33137) [DRSC20629] → induced reporter light, run 1, well a: 1.27e5; induced reporter light, run 1, well b: 1.36e5; control promoter light, run 1, well a: 1.09e5; control promoter light, run 1, well b: 1.29e5; uninduced reporter light, run 1, well a: 12505; call: inactive

No new results follow: an excerpt of the list.
Axn (GeneID 43565) [DRSC14120] → induced reporter light, run 1, well a: 36815; induced reporter light, run 1, well b: 36800; control promoter light, run 1, well a: 40455; control promoter light, run 1, well b: 46510; uninduced reporter light, run 1, well a: 3605; call: inactive
l(1)G0196 (GeneID 33137) [DRSC20591] → induced reporter light, run 1, well a: 2.10e5; induced reporter light, run 1, well b: 2.10e5; control promoter light, run 1, well a: 2.81e5; control promoter light, run 1, well b: 2.85e5; uninduced reporter light, run 1, well a: 15980; call: inactive
l(1)G0196 (GeneID 33137) [DRSC20628] → induced reporter light, run 1, well a: 91510; induced reporter light, run 1, well b: 1.04e5; control promoter light, run 1, well a: 68865; control promoter light, run 1, well b: 49200; uninduced reporter light, run 1, well a: 8055; call: inactive
